Assay results as given in patent publication EP4644375A1, “SUBSTITUTED HYDROQUINOLINES FOR THE TREATMENT OF GLIOBLASTOMA MULTIFORME” (Molius Saglik Teknolojileri Anonim Sirketi, priority 2024, dated 2025).
“Also recorded” adds a separate entry of the source. For some assays here: The name of at least one read-out is uncertain. Some compounds share one wording; it may come from a single statement. For some assays here: At least one structure is not confirmed: it was looked up by name or label, or the drawing left a doubt.

How the values were obtained:
GBM xenograft rat model = experiment: In vivo GBM rat model: survival; conditions: GBM rats, 30 mg/kg oral gavage once daily for 5 days, 14th to 28th day, compared to untreated GBM rats
Protocol: An in Vivo study was performed to assess the therapeutic potential of TR-G002, TR-G045, TR-G053, TR-G066, TR-G071 and TR-G091 in the GBM xenograft rat model when administered orally by gavage for five consecutive days. 152 female rats of the Sprague Dawley strain were allocated to the study. Six groups of sixteen females were given dose of 30 mg/kg of the respective target compounds. […] The study design can be seen in Fig. 11 and Table 10.
Female Sprague Dawley rats (age: 6-8 weeks; weight: 255-310 g; ATADEM, Erzurum, Turkey) were utilized in the study. Rats underwent anaesthesia with 5% isoflurane, maintained at 2% isoflurane (1 L/min oxygen), and were positioned in a stereotactic frame for cell implantation (Stoelting Co., IL). […] A burr hole was drilled 1-mm anterior and 3-mm lateral to the right bregma. A microsyringe (Hamilton 1700 series) containing 5×10^4 U87-MG cells suspended in 5 µL of medium at 37 °C was advanced to a depth of 4 mm into the brain. The cells were injected at a rate of 3 µL/ min. Bone wax was used to fill the burr hole to prevent cell suspension reflux. The incision was sutured, and 1 mL of Meloxicam (5 mg/mL; Metacam, Boehringer Ingelheim Vetmedica, Ingelheim, Germany) was administered via a subcutaneous injection.
Fourteen days after inoculation, tumor development in rats was visualized and confirmed through magnetic resonance imaging (MRI). […]

[1] = PAMPA permeability assay, BBB mimicking membrane; format: in vitro ADME; conditions: 500 µM, 18 hours, 37 °C

Compound | survival (GBM xenograft rat model) | permeability through the blood-brain barrier mimicking membrane [1]
Cn1nnc2c(C(N)=O)ncn2c1=O [TMZ, Temozolomide, reference compound] | prolonged the survival; also recorded: significantly improved survival | 
Cc1ccc(F)cc1NC(=O)Oc1ccc2c(c1)CCC(=O)N2 [TR-G097, 2-oxo-1,2,3,4-tetrahydroquinolin-6-yl (5-fluoro-2-methylphenyl)carbamate] |  | highly permeable
